# PubChem BioAssay AID743454 | Peter MacCallum Cancer Centre, 2014
# Screen: 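Genes whose loss kills vorinostat-resistant colon cancer cells under vorinostat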 (primary screen)
# Cell system: human HCT116-VR colon cancer cells, selected for vorinostat resistance
# Knock-down reagent: siRNA pool against human genes, 40 nM siRNA pool
# Timing: vorinostat for 24 h, read-out about 72 h after transfection
# Treatment: vorinostat at 2.5 µM final
# Read-out: 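Two measures, CellTiter-Fluor viability and luminescent caspase 3/7 activity, each as fold change against same-plate mock wells, mean of duplicates, then screen-wide robust z-score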
# Reading the numbers: viability robust z-score: higher = more viable cells than screen typical; caspase robust z-score: higher = more caspase 3/7 activity than screen typical
# Hit rule: 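a knock-down is a hit when classed RV1 or RV2 for lowered viability, or CA1 or CA2 for caspase activation; those lethal without drug were dropped; hits were retested singly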
# Shown is an unselected part of about 18,000 reagents. 450 of all reagents (2.5%) count as active. 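Single biological run; no consistent viability z cut-off exists, so the class columns, not z-scores, define the calls.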 Entries without a mark were called inactive. The numbers tell different reagents against one gene apart. No sequences are given here.
Gene,reagent,viability hit class,caspase hit class,viability robust z-score,caspase robust z-score
DNAJA2,1,RV2 (reduced viability) (active),no change,-3.51,3.47
FAM174B,1,no change,no change,-0.41,2
NCKAP5,1,no change,no change,0.46,1.35
MIER3,1,no change,no change,-0.14,-0.88
KIAA1217,1,no change,no change,0.98,0.12
DUSP14,1,no change,no change,1.96,-0.71
LDHA,1,no change,no change,-0.11,-1.29
RPL37A,1,no change,no change,-4.63,-0.8
GALR1,1,no change,no change,-0.64,1.04
RGS7,1,no change,no change,1.27,-0.43
ZNF552,1,no change,no change,-1.28,0.88
SYCP2,1,no change,no change,-0.05,0.02
LIN54,1,no change,no change,0.78,1.08
TECR,1,no change,no change,-0.23,0.26
GUCY2D,1,no change (active),CA2 (caspase activation),-4.49,5.8
APOH,1,no change,no change,0.04,-0.68
IRGQ,1,no change,no change,0.72,-0.68
CAMK1D,1,no change,no change,0.25,1.5
MBD6,1,no change,no change,0.13,-0.8
ESPL1,1,no change,no change,-1.24,3.05

Part of the list above in another layout:
{"Gene":"NCKAP5","reagent":1,"viability hit class":"no change","caspase hit class":"no change","viability robust z-score":0.46,"caspase robust z-score":1.35}
{"Gene":"MIER3","reagent":1,"viability hit class":"no change","caspase hit class":"no change","viability robust z-score":-0.14,"caspase robust z-score":-0.88}
{"Gene":"KIAA1217","reagent":1,"viability hit class":"no change","caspase hit class":"no change","viability robust z-score":0.98,"caspase robust z-score":0.12}

The list goes on:
Gene,reagent,viability hit class,caspase hit class,viability robust z-score,caspase robust z-score
CETN2,1,no change,no change,-0.13,-0.9
GPR139,1,no change,no change,-0.39,0.95
CCN3,1,no change,no change,-0.14,-0.75
TRIM44,1,no change,no change,0.87,0.05
PACSIN1,1,no change,no change,0.03,-0.48
SLC30A9,1,no change,no change,-0.16,0.6
COMMD7,1,no change,no change,-1.08,0.34
DCAF7,1,no change,no change,-0.94,3.4
TTPA,1,no change,no change,-1.27,2.04
PCDH11Y,1,no change,no change,-0.68,-0.8
TNFRSF14,1,no change,no change,-0.71,4.09
KCNAB2,1,no change,no change,-0.94,-0.02
IDH3B,1,no change,no change,-1.13,-1.36
WFIKKN2,1,no change,no change,-0.12,-0.87
FOLR3,1,no change,no change,-0.56,0.34
HYOU1,1,no change,no change,0.98,0.49
PLAAT3,1,no change,no change,-1.28,0.03
ELMOD1,1,no change,no change,0.58,2.42
ELMOD1,2,no change,no change,-1.6,4.46
BCL2L10,1,no change,no change,-0.71,0.28
MMUT,1,no change,no change,0.62,-0.93
DYNLT3,1,no change,no change,-0.18,-0.82
PLEKHM1,1,no change,no change,0.12,3.12
BCHE,1,no change,no change,1.93,0.13
TTC1,1,no change,no change,0.3,2.06
KRTAP11-1,1,no change,no change,0.67,-0.7
PODN,1,no change,no change,2.19,0.22
TNFSF4,1,no change,no change,-1.46,1.07
ALG10,1,no change,no change,0,-0.34
C12orf76,1,no change,no change,-0.96,-1.12
MNDA,1,no change,no change,0.42,1.36
KRT36,1,no change,no change,-1.09,0.15
SNX5,1,no change,no change,-0.32,-0.81
LRIG3,1,no change,no change,0.39,0.43
SLC29A4,1,no change,no change,0.74,2.05
NAA16,1,no change,no change,0.66,-0.26
AMY1B,1,no change,no change,0.86,-0.7
